Measurements published in patent US20150299290A1 (University of Georgia Research Foundation, Inc., priority 2010, published 2015).

Test: general procedure: Fmoc solid-phase peptide synthesis; Rink amide resin; HMPB-MBHA resin; H-Gly-sulfamylbutyryl Novasyn TG resin; HBTU/HOBt; HATU and PyBOP/HOBt/DIPEA for manual couplings

Substance | step yield (coupling step) [%] | step yield (late stage modification step) [%]
Pam3CysSK4G-C-KLFAVWKITYKDT-G-GSTPVS(β-S-GluNAc)SANM | 64 | 
Pam3Cys-YAF-Tn |  | 79
